# Laboratory results published in publication PMC4287497, “Phosphorylation of Elp1 by Hrr25 Is Required for Elongator-Dependent tRNA Modification in Yeast” (PLoS Genetics, 2015).
# Results are given in words; binding and its absence hold for the method and conditions named. Binding seen in cells or lysates may run through a third protein. Some binding calls cover weakened binding; strength is not graded here. For some of these results: Sequences can lack the tags named with a protein.
# T1: Elp1-6HA (wild-type, from YCplac111-ELP1-6HA) (S. cerevisiae) (UniProt Q06706)
# T1 sequence: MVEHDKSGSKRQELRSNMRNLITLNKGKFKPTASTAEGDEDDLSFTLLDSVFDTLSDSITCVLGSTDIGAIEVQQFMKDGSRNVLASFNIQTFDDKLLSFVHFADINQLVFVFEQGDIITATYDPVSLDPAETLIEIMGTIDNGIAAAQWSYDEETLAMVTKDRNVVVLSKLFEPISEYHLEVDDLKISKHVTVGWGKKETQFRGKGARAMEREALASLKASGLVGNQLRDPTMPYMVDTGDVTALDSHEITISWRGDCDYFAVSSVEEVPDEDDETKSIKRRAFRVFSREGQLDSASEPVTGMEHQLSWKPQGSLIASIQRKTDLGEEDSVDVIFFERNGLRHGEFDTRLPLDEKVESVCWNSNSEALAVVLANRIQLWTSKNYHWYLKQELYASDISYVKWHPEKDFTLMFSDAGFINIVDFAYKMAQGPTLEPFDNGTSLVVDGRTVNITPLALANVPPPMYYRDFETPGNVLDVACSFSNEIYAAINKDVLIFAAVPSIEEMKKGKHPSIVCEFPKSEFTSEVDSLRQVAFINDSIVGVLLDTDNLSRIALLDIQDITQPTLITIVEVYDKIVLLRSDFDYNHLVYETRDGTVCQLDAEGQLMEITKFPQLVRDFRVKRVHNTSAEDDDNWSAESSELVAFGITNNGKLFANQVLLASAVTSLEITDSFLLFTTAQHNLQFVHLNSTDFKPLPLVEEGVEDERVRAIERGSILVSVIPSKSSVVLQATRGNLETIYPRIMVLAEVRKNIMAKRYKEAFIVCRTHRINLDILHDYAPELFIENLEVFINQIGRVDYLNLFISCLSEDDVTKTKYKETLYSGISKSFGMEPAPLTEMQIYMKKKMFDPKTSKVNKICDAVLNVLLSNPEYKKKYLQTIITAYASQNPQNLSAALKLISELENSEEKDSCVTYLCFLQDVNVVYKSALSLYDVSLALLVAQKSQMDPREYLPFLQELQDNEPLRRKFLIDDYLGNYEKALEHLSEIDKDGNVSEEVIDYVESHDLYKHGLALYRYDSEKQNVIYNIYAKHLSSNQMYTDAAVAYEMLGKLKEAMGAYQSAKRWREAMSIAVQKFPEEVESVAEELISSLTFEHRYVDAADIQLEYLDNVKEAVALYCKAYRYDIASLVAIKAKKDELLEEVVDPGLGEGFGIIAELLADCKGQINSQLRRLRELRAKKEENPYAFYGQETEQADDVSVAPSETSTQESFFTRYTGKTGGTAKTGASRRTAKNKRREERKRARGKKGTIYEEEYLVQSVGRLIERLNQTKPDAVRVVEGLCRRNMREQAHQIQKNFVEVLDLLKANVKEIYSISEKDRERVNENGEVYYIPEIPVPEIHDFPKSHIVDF
# T2: Elp2-myc3 (S. cerevisiae) (UniProt P42935)
# T2 sequence: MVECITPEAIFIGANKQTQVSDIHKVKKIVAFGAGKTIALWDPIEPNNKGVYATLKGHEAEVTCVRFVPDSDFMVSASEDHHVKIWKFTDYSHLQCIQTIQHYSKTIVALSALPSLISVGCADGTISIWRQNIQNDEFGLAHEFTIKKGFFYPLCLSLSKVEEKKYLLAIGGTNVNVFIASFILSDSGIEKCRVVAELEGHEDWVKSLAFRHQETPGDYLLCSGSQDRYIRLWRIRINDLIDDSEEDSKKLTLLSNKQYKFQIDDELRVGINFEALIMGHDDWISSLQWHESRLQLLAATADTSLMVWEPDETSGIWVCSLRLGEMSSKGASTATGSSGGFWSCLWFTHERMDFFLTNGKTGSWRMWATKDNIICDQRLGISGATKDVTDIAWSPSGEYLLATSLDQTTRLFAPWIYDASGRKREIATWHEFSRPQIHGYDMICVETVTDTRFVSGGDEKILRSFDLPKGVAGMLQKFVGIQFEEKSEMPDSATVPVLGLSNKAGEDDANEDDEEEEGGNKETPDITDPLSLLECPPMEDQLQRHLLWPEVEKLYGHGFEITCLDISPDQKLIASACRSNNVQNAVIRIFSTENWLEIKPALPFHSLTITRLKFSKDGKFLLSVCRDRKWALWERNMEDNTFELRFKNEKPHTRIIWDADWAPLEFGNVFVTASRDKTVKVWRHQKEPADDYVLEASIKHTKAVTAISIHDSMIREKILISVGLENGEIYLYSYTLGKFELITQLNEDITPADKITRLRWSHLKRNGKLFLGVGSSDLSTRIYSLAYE
# How the values were obtained:
# [1] = target: T1, Elp1-6HA (wild-type, from YCplac111-ELP1-6HA) (S. cerevisiae); test: co-IP; Elp2-myc immunoprecipitated from extracts of elp1Δ yeast strains carrying plasmid-borne ELP1-6HA alleles (antibody coupled to Dynabeads, B60 buffer); Western blot with anti-myc, anti-HA and anti-Hrr25
# [2] = target: T2, Elp2-myc3 (S. cerevisiae); test: as above
binding [1],binding [2],Binder
binds,binds,"Hrr25 protein kinase (casein kinase I), endogenous (enzyme, UniProt P29295 1-494) MDLRVGRKFRIGRKIGSGSFGDIYHGTNLISGEEVAIKLESIRSRHPQLDYESRVYRYLSGGVGIPFIRWFGREGEYNAMVIDLLGPSLEDLFNYCHRRFSFKTVIMLALQMFCRIQYIHGRSFIHRDIKPDNFLMGVGRRGSTVHVIDFGLSKKYRDFNTHRHIPYRENKSLTGTARYASVNTHLGIEQSRRDDLESLGYVLIYFCKGSLPWQGLKATTKKQKYDRIMEKKLNVSVETLCSGLPLEFQEYMAYCKNLKFDEKPDYLFLARLFKDLSIKLEYHNDHLFDWTMLRYTKAMVEKQRDLLIEKGDLNANSNAASASNSTDNKSETFNKIKLLAMKKFPTHFHYYKNEDKHNPSPEEIKQQTILNNNAASSLPEELLNALDKGMENLRQQQPQQQVQSSQPQPQPQQLQQQPNGQRPNYYPEPLLQQQQRDSQEQQQQVPMATTRATQYPPQINSNNFNTNQASVPPQMRSNPQQPPQDKPAGQSIWL"
binds,binds,"Kti12-HA6 (natural protein, S. cerevisiae, UniProt P34253 1-313, looked up, Kti12, accessory protein of Elongator, S. cerevisiae; also called HA-tagged Kti12; source: S. cerevisiae KTI12-HA6 strains, in cell extract) MPLVLFTGYPCSGKTTLAKHLVQLLQSKIDATPSLSKYSITYHSDESLGIKHSDYITSQDERKLRSEIISAVKRDLSKNKIVIVDSLNYIKGFRYQLHCEVKNLSTTFCVIQTLCPPETIFEWNKTSNPNPWEPELLNQLIQRYEEPNSSNRWDSPLFAILTPQDNITDYIDDICKVVFQTSKSAKNSGHNDPLSKGLQKPNSATVLKPASQSNFIQVLDIETSKIIKTIMNHIKSLTSIGGVSNGTRVIVSEGITDINDDGCFFVDLPIGNVVTLAQLQRLKRQFINFNKLRDIDQDRIGPLFADYLNKNLN"
